Measured values reported in patent US5856358A, “Mono- and disulfo-substituted anthraquinones and their use for the treatment of bone matrix disorders” (priority 1995, dated 1999).
At least one structure is not confirmed: it was looked up by name or label, or the drawing left a doubt.

Tested on: copper "scavenging" of superoxide anion produced by the hypoxanthine/xanthine oxidase system
Assay: Copper "scavenging" effect (superoxide anion from hypoxanthine/xanthine oxidase system, cytochrome C)
Format: biochemical

Structure (SMILES): O=C1c2ccc(S(=O)(=O)O)cc2C(=O)c2ccc(S(=O)(=O)O)cc21 [2,6-anthraquinonedisulfonic acid]
- % Reduction (effect on copper "scavenging" action): 6%
